Results as given in the supplement of paper PMC10849652.
The other results are listed elsewhere or left out.

Chains of the proteins cited; added tags and fusions are not shown. Lines headed by an entry give the natural chain unless they say otherwise; changes in a name come on top.
UniProt P04075: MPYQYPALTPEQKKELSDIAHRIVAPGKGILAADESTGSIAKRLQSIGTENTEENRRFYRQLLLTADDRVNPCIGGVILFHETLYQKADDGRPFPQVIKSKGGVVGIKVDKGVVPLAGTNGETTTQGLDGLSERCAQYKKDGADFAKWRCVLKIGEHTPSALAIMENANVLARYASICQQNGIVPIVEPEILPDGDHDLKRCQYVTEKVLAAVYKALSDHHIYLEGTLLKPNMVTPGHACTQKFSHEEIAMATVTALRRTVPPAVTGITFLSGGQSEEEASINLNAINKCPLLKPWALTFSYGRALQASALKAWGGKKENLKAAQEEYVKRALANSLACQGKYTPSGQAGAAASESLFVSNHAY
UniProt Q86W34: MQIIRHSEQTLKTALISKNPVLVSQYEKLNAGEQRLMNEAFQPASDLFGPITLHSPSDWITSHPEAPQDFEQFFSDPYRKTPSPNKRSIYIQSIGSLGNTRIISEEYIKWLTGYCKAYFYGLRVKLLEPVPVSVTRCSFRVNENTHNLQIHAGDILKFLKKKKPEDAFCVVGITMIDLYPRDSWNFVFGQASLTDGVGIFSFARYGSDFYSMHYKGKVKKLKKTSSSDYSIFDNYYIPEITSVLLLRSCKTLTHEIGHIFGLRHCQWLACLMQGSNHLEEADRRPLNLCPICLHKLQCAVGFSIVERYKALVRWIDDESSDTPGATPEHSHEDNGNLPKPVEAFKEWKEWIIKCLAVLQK
UniProt Q9NVV5: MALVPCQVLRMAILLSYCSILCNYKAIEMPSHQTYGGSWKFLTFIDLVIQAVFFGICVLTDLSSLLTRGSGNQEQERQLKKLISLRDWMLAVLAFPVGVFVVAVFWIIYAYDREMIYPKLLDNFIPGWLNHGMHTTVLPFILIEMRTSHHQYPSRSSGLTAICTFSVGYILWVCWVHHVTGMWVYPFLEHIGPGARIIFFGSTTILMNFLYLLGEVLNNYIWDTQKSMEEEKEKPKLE
UniProt Q9UHB7: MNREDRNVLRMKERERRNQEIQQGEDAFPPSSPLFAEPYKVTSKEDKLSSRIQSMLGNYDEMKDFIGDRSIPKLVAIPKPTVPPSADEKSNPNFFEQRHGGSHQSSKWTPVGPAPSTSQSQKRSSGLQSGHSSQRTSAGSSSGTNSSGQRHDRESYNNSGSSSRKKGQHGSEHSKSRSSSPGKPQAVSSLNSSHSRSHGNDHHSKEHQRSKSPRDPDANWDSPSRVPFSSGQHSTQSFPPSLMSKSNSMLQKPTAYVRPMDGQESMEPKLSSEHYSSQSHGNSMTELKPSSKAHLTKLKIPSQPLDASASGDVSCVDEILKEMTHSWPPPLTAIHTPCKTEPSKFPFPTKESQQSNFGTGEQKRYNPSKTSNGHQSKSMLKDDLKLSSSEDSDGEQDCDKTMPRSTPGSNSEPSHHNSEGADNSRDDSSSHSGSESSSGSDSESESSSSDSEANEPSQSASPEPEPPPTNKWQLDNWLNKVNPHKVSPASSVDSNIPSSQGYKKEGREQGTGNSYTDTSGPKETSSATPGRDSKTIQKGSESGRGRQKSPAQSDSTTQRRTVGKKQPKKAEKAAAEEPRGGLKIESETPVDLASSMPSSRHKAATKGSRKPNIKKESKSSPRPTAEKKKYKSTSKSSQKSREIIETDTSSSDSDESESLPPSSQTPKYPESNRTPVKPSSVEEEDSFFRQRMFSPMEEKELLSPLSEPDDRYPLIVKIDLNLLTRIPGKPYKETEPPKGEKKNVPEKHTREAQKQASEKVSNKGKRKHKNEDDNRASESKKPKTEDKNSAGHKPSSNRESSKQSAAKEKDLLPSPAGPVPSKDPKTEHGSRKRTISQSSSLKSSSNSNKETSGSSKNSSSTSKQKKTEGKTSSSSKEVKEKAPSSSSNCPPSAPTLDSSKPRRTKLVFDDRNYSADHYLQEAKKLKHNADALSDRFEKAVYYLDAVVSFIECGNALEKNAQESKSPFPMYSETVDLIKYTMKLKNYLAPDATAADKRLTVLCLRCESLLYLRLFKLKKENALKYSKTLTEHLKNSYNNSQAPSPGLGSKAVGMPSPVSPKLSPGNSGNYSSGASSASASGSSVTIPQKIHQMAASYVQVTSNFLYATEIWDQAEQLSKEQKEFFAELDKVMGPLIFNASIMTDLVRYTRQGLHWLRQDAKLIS
UniProt O00116: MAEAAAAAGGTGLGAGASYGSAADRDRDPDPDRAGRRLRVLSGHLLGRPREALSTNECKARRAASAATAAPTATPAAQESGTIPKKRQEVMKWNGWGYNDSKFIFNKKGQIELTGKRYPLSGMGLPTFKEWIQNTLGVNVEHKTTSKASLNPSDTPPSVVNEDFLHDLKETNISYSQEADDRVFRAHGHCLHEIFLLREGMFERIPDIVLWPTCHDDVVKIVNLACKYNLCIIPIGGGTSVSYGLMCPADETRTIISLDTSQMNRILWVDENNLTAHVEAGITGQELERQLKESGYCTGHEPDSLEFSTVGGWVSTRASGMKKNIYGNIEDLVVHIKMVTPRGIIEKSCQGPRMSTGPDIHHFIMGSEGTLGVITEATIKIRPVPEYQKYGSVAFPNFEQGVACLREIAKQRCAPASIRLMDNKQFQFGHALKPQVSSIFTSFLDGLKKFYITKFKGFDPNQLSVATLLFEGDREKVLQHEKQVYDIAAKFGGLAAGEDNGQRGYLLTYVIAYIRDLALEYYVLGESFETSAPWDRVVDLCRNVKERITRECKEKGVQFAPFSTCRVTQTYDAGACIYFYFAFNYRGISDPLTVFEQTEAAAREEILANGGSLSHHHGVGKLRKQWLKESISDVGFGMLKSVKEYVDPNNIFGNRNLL
UniProt Q9NYG5, whole entry, looked up: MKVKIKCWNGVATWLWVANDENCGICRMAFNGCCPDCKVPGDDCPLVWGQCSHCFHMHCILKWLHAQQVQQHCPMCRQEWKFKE
UniProt Q96A54: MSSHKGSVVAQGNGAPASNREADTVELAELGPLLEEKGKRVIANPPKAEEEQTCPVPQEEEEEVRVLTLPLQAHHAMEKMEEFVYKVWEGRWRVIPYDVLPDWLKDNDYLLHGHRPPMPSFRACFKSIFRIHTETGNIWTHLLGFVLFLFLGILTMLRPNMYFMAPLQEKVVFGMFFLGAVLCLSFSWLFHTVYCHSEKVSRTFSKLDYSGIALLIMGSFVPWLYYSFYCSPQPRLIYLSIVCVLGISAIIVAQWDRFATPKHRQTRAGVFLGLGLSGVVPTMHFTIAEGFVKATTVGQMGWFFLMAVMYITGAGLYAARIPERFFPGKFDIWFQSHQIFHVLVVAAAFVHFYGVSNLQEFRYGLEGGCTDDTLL
UniProt P05091: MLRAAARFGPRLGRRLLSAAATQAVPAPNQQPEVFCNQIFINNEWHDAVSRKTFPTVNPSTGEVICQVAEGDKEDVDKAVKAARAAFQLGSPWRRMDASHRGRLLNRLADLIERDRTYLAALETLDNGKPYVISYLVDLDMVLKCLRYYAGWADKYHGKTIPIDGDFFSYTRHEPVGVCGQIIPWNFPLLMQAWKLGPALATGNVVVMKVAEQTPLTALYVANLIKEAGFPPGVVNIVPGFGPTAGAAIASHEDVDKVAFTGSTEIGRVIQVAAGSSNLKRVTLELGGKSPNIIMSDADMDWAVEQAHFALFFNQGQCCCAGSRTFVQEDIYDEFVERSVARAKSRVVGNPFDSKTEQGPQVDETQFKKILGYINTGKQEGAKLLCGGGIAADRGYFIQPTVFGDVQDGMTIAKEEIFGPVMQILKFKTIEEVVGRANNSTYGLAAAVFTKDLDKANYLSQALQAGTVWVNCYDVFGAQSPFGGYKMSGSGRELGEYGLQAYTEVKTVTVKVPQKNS
UniProt Q2TAA5: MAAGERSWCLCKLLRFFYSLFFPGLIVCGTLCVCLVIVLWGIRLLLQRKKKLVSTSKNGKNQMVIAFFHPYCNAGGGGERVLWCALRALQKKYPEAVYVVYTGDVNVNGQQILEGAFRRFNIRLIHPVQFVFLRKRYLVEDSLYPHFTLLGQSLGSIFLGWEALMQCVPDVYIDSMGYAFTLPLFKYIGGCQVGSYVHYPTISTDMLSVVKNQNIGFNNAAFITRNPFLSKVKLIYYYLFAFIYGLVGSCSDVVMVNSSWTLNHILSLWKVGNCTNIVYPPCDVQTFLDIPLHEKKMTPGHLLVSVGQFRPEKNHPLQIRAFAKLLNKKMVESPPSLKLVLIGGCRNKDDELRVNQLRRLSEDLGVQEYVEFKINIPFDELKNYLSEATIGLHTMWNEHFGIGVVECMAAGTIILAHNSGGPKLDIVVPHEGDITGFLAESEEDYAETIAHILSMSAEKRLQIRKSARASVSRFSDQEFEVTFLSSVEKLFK
UniProt P17707: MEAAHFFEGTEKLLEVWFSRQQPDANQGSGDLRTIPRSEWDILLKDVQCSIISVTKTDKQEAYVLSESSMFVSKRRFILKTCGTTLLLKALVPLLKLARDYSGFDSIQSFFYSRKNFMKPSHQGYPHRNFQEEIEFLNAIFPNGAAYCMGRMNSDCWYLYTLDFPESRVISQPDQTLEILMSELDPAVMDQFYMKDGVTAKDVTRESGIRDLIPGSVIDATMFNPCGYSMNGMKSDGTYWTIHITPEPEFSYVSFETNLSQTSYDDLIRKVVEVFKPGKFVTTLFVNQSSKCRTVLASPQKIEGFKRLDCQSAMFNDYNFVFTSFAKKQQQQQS
UniProt O94910: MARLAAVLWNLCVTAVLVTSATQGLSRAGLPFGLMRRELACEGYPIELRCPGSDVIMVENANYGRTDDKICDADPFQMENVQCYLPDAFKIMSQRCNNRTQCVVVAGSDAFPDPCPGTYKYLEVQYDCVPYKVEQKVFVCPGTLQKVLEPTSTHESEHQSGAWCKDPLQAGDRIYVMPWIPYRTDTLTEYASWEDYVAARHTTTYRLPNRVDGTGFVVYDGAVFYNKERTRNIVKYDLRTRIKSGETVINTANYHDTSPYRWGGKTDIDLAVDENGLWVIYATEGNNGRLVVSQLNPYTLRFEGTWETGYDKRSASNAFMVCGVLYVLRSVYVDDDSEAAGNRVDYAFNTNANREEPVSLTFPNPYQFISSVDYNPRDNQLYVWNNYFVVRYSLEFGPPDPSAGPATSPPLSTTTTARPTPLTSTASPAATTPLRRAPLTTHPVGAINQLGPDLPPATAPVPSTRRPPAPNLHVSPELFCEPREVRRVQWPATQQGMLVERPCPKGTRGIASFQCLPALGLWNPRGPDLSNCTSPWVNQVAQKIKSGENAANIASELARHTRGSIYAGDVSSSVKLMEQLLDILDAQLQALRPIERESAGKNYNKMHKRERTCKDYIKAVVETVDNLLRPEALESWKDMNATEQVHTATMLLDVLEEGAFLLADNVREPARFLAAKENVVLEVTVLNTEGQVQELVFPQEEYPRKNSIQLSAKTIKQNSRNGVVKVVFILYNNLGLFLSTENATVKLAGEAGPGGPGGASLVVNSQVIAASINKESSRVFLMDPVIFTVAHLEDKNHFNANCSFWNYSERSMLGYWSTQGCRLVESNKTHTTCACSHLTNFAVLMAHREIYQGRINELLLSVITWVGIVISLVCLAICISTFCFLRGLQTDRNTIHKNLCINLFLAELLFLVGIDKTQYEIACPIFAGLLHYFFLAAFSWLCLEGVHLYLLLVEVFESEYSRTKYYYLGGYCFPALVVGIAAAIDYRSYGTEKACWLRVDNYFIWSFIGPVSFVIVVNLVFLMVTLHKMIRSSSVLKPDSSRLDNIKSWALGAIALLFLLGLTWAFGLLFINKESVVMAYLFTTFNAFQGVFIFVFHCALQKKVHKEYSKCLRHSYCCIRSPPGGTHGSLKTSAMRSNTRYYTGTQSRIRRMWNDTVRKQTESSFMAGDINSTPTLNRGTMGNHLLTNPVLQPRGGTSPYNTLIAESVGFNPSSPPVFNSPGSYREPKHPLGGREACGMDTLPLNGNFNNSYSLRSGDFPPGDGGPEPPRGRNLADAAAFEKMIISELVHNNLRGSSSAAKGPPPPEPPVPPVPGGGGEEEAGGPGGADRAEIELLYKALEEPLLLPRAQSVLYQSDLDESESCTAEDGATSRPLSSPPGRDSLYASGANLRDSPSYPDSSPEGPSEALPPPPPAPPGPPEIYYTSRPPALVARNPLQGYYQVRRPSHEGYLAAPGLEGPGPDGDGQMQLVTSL
UniProt Q9H8T0: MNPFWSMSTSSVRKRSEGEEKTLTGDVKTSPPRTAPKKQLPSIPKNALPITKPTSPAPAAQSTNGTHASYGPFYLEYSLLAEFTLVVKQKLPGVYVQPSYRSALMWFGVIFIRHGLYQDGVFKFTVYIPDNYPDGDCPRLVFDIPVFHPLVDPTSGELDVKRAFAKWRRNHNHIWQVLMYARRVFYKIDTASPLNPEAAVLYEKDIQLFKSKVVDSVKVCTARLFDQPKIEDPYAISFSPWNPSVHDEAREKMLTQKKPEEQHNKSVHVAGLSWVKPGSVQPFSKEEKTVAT

Tests used:
Test in all cases: log2 fold change, soluble protein after heating vs DMSO (PISA); higher = thermal stabilisation; K562 cells, 10 uM, 30 min; active = over 0.2 and 3.5 SD of the protein, either way, in both replicates (recomputed)
saracatinib = compound: CN1CCN(CCOc2cc(OC3CCOCC3)c3c(Nc4c(Cl)ccc5c4OCO5)ncnc3c2)CC1 [saracatinib]
Method in brief: (§1)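 K562 cells at 2×10^6 cells/mL were exposed to 10 μM compound for 30 min, then aliquots were heated for 3 min across 48°C-58°C, pooled, and extracted in PBS containing 0.5% NP-40 at 4°C. The supernatant after 21,000xg for 90 min was taken as soluble protein and measured by TMTpro 16plex LC-MS/MS with channel sums equalised. Thermal stability is reported relative to control samples, with values from duplicates. Fold changes are given on a log2 scale.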

sotrastaurin = compound: CN1CCN(c2nc(C3=C(c4c[nH]c5ccccc45)C(=O)NC3=O)c3ccccc3n2)CC1 [sotrastaurin]
Method in brief: as §1

Tubastatin A = compound: CN1CCc2c(c3ccccc3n2Cc2ccc(C(=O)NO)cc2)C1 [Tubastatin A]
Method in brief: as §1

defactinib = compound: CNC(=O)c1ccc(Nc2ncc(C(F)(F)F)c(NCc3nccnc3N(C)S(C)(=O)=O)n2)cc1 [defactinib]
Method in brief: as §1

rucaparib = compound: CNCc1ccc(-c2[nH]c3cc(F)cc4c3c2CCNC4=O)cc1 [rucaparib]
Method in brief: as §1

[1] = compound: CNc1nc(-c2ccc3c(N)n[nH]c3c2)cc(N2C[C@@H](C(=O)NC3CCCCC3)CC[C@H]2C)n1
Method in brief: as §1

encorafenib = compound: COC(=O)N[C@@H](C)CNc1nccc(-c2cn(C(C)C)nc2-c2cc(Cl)cc(NS(C)(=O)=O)c2F)n1 [encorafenib]
Method in brief: as §1

[2] = compound: COC(=O)[C@H](CCSC)NC(=O)C1=C(C=C(C=C1)NC[C@H](CS)N)C2=CC=CC=C2
Method in brief: as §1

[3] = compound: COC1=CC=C(C=C1)CN2C=CC3=C2C=C(C=C3)C(=O)NO
Method in brief: as §1

filanesib = compound: CON(C)C(=O)N1N=C(c2cc(F)ccc2F)S[C@@]1(CCCN)c1ccccc1 [filanesib]
Method in brief: as §1

zotarolimus = compound: CO[C@H]1C[C@@H]2CC[C@@H](C)[C@@](O)(O2)C(=O)C(=O)N2CCCC[C@H]2C(=O)O[C@H]([C@H](C)C[C@@H]2CC[C@H](n3cnnn3)[C@H](OC)C2)CC(=O)[C@H](C)/C=C(\C)[C@@H](O)[C@@H](OC)C(=O)[C@H](C)C[C@H](C)/C=C/C=C/C=C/1C [zotarolimus]
Method in brief: as §1

idasanutlin = compound: COc1cc(C(=O)O)ccc1NC(=O)[C@@H]1N[C@@H](CC(C)(C)C)[C@](C#N)(c2ccc(Cl)cc2F)[C@H]1c1cccc(Cl)c1F [idasanutlin]
Method in brief: as §1

alisertib = compound: COc1cc(Nc2ncc3c(n2)-c2ccc(Cl)cc2C(c2c(F)cccc2OC)=NC3)ccc1C(=O)O [alisertib]
Method in brief: as §1

[4] = compound: COc1cc2nc(-c3cc(F)ccc3O)nc(N[C@@H]3CNC[C@H]3C(C)(C)O)c2cc1OC
Method in brief: as §1

[5] = compound: COc1cccc2cc(-c3nc([C@H]4CC[C@H](C(=O)O)CC4)n4ncnc(N)c34)[nH]c12
Method in brief: as §1

lapatinib = compound: CS(=O)(=O)CCNCc1ccc(-c2ccc3ncnc(Nc4ccc(OCc5cccc(F)c5)c(Cl)c4)c3c2)o1 [lapatinib]
Method in brief: as §1

pictilisib = compound: CS(=O)(=O)N1CCN(Cc2cc3nc(-c4cccc5[nH]ncc45)nc(N4CCOCC4)c3s2)CC1 [pictilisib]
Method in brief: as §1

[6] = compound: CNC(=O)C1=CC=CC=C1NC2=NC(=NC=C2Cl)NC3=C(C=C(C=C3)N4CCOCC4)OC
Method in brief: as §1

gefitinib = compound: COc1cc2ncnc(Nc3ccc(F)c(Cl)c3)c2cc1OCCCN1CCOCC1 [gefitinib]
Method in brief: as §1

alvocidib = compound: CN1CC[C@H](c2c(O)cc(O)c3c(=O)cc(-c4ccccc4Cl)oc23)[C@H](O)C1 [alvocidib]
Method in brief: as §1

Measured: log2 fold change

ADD3 isoform 2 (UniProt Q9UEY8)
inactive: saracatinib -0.112 | sotrastaurin 0.014 | Tubastatin A 0.058 | defactinib -0.025 | rucaparib -0.036 | [1] -0.172 | encorafenib -0.166 | [2] -0.025 | [3] -0.022 | filanesib -0.025 | zotarolimus 0.186 | idasanutlin -0.276 | alisertib -0.042 | [4] 0.094 | [5] -0.003 | lapatinib -0.028 | pictilisib 0.125

ALDOA (UniProt P04075)
inactive: saracatinib 0.101 | sotrastaurin 0.006 | Tubastatin A 0.05 | [6] 0.106 | defactinib -0.029 | rucaparib -0.037 | [1] -0.033 | encorafenib -0.007 | [2] 0.004 | filanesib 0.119 | idasanutlin -0.153 | alisertib -0.033 | [4] 0.02 | gefitinib -0.079 | [5] -0.005 | lapatinib -0.024 | pictilisib 0.192

AMZ2 (UniProt Q86W34)
inactive: saracatinib 0.06 | sotrastaurin -0.111 | [1] -0.013 | filanesib -0.007 | alisertib -0.042 | [4] 0.024 | [5] 0.328 | lapatinib -0.059

AIG1 (UniProt Q9NVV5)
inactive: saracatinib 0.048 | Tubastatin A -0.213 | [1] -0.029 | idasanutlin 0.154 | pictilisib -0.092

AFF4 (UniProt Q9UHB7)
inactive: saracatinib 0.205 | sotrastaurin -0.365 | [6] 0.025 | [1] -0.337 | filanesib 0.251 | idasanutlin 0.045 | alisertib 0.267 | [5] 0.301 | pictilisib -0.22

ADGRV1 (UniProt Q8WXG9)
inactive: sotrastaurin 0.034 | alvocidib 0.064 | rucaparib -0.221 | encorafenib 0.012 | [3] -0.327 | filanesib 0.13 | zotarolimus -0.038 | alisertib 0.222 | gefitinib 0.014 | [5] 0.08 | pictilisib -0.508

AGPS (UniProt O00116)
inactive: saracatinib -0.01 | sotrastaurin 0.018 | Tubastatin A -0.011 | [6] 0.032 | defactinib -0.039 | rucaparib -0.017 | [1] 0.047 | encorafenib 0.009 | [2] -0.042 | [3] 0.074 | filanesib -0.145 | zotarolimus 0.05 | idasanutlin -0.037 | alisertib -0.03 | [4] -0.044 | gefitinib 0.069 | [5] 0.048 | lapatinib 0.018 | pictilisib -0.003

ANAPC11 (UniProt Q9NYG5)
inactive: saracatinib 0.1 | alvocidib 0.023 | [6] 0.268 | defactinib 0.059 | rucaparib 0.062 | [1] -0.053 | encorafenib 0.093 | [2] 0.019 | zotarolimus 0.003

Two successive records out of the list so far, quoted:
ADGRV1 (UniProt Q8WXG9)
inactive: sotrastaurin 0.034 | alvocidib 0.064 | rucaparib -0.221 | encorafenib 0.012 | [3] -0.327 | filanesib 0.13 | zotarolimus -0.038 | alisertib 0.222 | gefitinib 0.014 | [5] 0.08 | pictilisib -0.508

AGPS (UniProt O00116)
inactive: saracatinib -0.01 | sotrastaurin 0.018 | Tubastatin A -0.011 | [6] 0.032 | defactinib -0.039 | rucaparib -0.017 | [1] 0.047 | encorafenib 0.009 | [2] -0.042 | [3] 0.074 | filanesib -0.145 | zotarolimus 0.05 | idasanutlin -0.037 | alisertib -0.03 | [4] -0.044 | gefitinib 0.069 | [5] 0.048 | lapatinib 0.018 | pictilisib -0.003

Additional entries.

ADIPOR1 (UniProt Q96A54)
inactive: saracatinib -0.046 | sotrastaurin -0.025 | [6] -0.273 | defactinib 0 | rucaparib 0.046 | [1] -0.027 | encorafenib -0.075 | [2] -0.009 | [3] 0.056 | filanesib -0.081 | alisertib -0.139 | [4] -0.038 | gefitinib 0.007 | [5] 0.111 | lapatinib 0.025

ALDH2 (UniProt P05091)
inactive: saracatinib 0.007 | sotrastaurin -0.099 | Tubastatin A -0.032 | [6] 0.078 | defactinib -0.055 | rucaparib -0.099 | [1] 0.026 | encorafenib 0.013 | [2] -0.03 | [3] -0.011 | filanesib -0.142 | zotarolimus 0.055 | idasanutlin -0.104 | alisertib 0.015 | [4] -0.006 | gefitinib 0.028 | [5] 0.069 | lapatinib -0.02 | pictilisib 0.043

AGAP1 (UniProt Q9UPQ3)
inactive: saracatinib -0.035 | alvocidib -0.162 | [6] -0.107 | defactinib -0.066 | [1] 0.02 | [2] -0.175 | [3] 0.041 | zotarolimus 0.072

ALG11 (UniProt Q2TAA5)
inactive: saracatinib 0.047 | sotrastaurin 0.013 | Tubastatin A -0.023 | [6] -0.018 | defactinib -0.021 | rucaparib -0.015 | [1] -0.021 | encorafenib 0.073 | [2] -0.082 | [3] -0.018 | filanesib -0.038 | zotarolimus 0.036 | idasanutlin -0.051 | alisertib -0.075 | [4] -0.003 | gefitinib 0.206 | [5] 0.026 | lapatinib 0.005 | pictilisib 0.032

AMD1 (UniProt P17707)
inactive: sotrastaurin -0.017 | Tubastatin A 0.014 | [6] 0.02 | defactinib 0.082 | rucaparib -0.08 | encorafenib 0.023 | [2] 0.042 | [3] -0.009 | filanesib -0.128 | idasanutlin -0.193 | alisertib -0.023 | [4] 0.024 | gefitinib 0.041 | [5] 0.058 | lapatinib -0.034 | pictilisib 0.043

ADCK5 (UniProt Q3MIX3)
inactive: sotrastaurin -0.012 | Tubastatin A -0.043 | [6] -0.101 | defactinib -0.005 | rucaparib -0.083 | encorafenib 0.063 | [2] -0.021 | [3] -0.036 | filanesib 0.103

ADGRL1 (UniProt O94910)
inactive: pictilisib 0.019

AKTIP isoform 2 (UniProt Q9H8T0)
inactive: sotrastaurin -0.008 | rucaparib -0.027 | encorafenib -0.03 | filanesib -0.018 | alisertib 0.185 | [4] 0.033 | [5] -0.107 | lapatinib -0.015
